{
  "source": "patent US20040023841A1",
  "about": "“Combinatorial method for rapid screening of drug delivery formulations” (priority 2003, published 2004)",
  "assay": "Loss of drug from donor hole of Teflon disc placed on stratum corneum",
  "assay_type": "in vitro ADME",
  "conditions": "drug in PBS, 2 mm hole, human SC, 24 hours contact, liquid scintillation counting",
  "description": "The following experiments were performed to assess the usefulness of a method, which determines the loss of a test substance from a formulation over time. Experiments were performed to assess whether this method can be used for estimation of skin permeability to drugs. For these studies, phosphate buffered saline was used as a model formulation. […] Ten holes were drilled into the disc and each hole was about 2 mm wide. The disc was then placed on the SC prepared from human skin. Solutions of nine different drugs in PBS were placed in various holes. The concentration of drugs in the solutions were measured at time zero. The drugs were allowed to remain in contact with the skin for 24 hours. Samples were taken from the holes at the end of 24 hours and then analyzed using a liquid scintillation counter. The amount of drug lost from the donor hole was calculated. Permeability measurements of the same drugs were performed using conventional methods that use macroscopic diffusion cells.",
  "data": [
    {"smiles": "CCN(CC)CC(=O)Nc1c(C)cccc1C", "note": "[Lidocaine]", "values": [
      {"measurement": "% Drug Lost from the Hole", "result": 20, "unit": "%"}
    ]}
  ]
}
